Laboratory results from patent CN114652851A.
Results are given in words; binding and its absence hold for the method and conditions named. Some binding calls cover weakened binding; strength is not graded here.

Target: Cynomolgus TROP2蛋白 (cynomolgus monkey)
Test: ELISA, TROP2 protein incubated with antibody dilutions, goat anti-human IgG (H+L) secondary antibody

binding: binds
B1: SY02人源化抗体 (人源化抗TROP2抗体SY02) (antibody, human IgG1, kappa, V domains shown)
VH: QVQLVQSGAEVKKPGSSVKVSCKASGYTFTDYSINWVRQAPGQGLEWMGVISTYYGDASYNQKFKGRVTITADESTSTAYMELSSLRSEDTAVYYCARYGDGYNQFDYWGQGTLVTVSS
VL: DIQMTQSPSSLSASVGDRVTITCRVSESVDSYGNNFMHWYQQKPGKAPKLLIYRASNLESGVPSRFSGSGSGTDFTFTISSLQPEDIATYYCQQSYEDPYTFGGGTKLEIKR
